Reference: article PMC2474703
Results are given in words; binding and its absence hold for the method and conditions named. In cells and extracts the contact can be indirect.

Biological target: T1, Transmembrane and ubiquitin-like domain-containing protein 1 (Tmub1/HOPS) (mouse (endogenous in mouse brain)) (UniProt Q9JMG3)
T1 sequence: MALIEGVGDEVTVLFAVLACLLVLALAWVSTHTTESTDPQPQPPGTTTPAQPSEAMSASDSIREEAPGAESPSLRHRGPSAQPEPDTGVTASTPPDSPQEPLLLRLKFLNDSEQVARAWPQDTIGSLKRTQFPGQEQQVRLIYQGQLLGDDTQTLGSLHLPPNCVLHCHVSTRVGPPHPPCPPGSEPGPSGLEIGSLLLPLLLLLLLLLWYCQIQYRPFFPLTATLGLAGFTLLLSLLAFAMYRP
Test: co-IP; whole mouse brain lysate (20 mM Tris-HCl pH 7.4, 100 mM NaCl, 1% Triton X-100), 10 ug anti-Tmub1/HOPS rabbit polyclonal antibody or control rabbit IgG on 2 mg supernatant, protein G-Sepharose, 4 C; endogenous proteins, detected by blot

B1: Syntaxin 13 (protein, UniProt Q9ER00 1-274)
chain: MSYGPLDMYRNPGPSGPQPRDFNSIIQTCSGNIQRISQATAQIKNLMSQLGTKQDSSKLQENLQQLQHSTNQLAKETNELLKELGSLPLPLSASEQRQQKLQKERLMNDFSSALNNFQVVQRKVSEKEKESIARARAGSRLSAEDRQREEQLVSFDSHEEWNQMQSQEEEAAITEQDLELIKERETAIRQLEADILDVNQIFKDLAMMIHDQGDLIDSIEANVESSEVHVERATDQLQRAAYYQKKSRKKMCILVLVLSVIVTVLVVVIWVASK
- binding: no binding
